# According to PubChem BioAssay AID1347426 (Functional Genomics Laboratory (NCATS/FGL), 2020):
# Hit rate of the full screen: of about 31,000 sequences, about 1,400 (4.5%) were called active.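 The calls were made as follows: active = median seed-adjusted z-score above 1 or below -1; inactive = the rest.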 The list shows a part of the results.
# Test: Novel Modifiers of Survival Motor Neuron (SMN) Protein: Gene Identification via Genome-wide siRNA Screen;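 also: luminescence tracks full-length SMN protein made from the SMN2 reporter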
# Conditions: HEK293T SMN2-luciferase reporter, siRNA knockdown, 72 h; actives lie on both sides
# Outline: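 Steps: spot 1 pmol siRNA, add Lipofectamine RNAiMax in serum-free DMEM, seed HEK293T SMN2–luciferase reporter cells; incubate 72 h at 37 °C; add ONE-Glo; normalize luminescence to control siRNA, log10, MAD. Candidates: |MAD| > 1.0.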
row,Sequence,median seed-adjusted z-score
1,GGCCGGAGAUUAUCCUCAATT against MIXL1,inactive: -0.204
2,CAUCAGGUCUGACAAAACATT against PCGF2,inactive: 0.187
3,GGAUGUUUUGACUACACUATT against ACADSB,inactive: -0.436
4,CUUGCACUCCUGUCCAUAATT against AP3B1,inactive: 0.31
5,GGAAAUUGUGGAUAUGAUUTT against SULT1C2,inactive: 0
6,GACCAGAGCUGAUUGAGUATT against ACTN4,inactive: 0
7,GGGCGAGAUUAUGAGUACATT against HNRNPUL2,inactive: -0.0273
8,CACCCUGAUUCAUCCGAGATT against TRPC4,inactive: -0.272
9,AGUUCUUCCUAAUCCGAGATT against DOLPP1,inactive: 0.00977
10,GAGAUGCUGUGGUCACGUATT against SLC12A2,inactive: -0.4
11,GAUGAUGACAAGUUUGAUATT against COQ5,inactive: -0.0292
12,CCUAUGCCUUCAUACCAUUTT against CYP4Z1,inactive: -0.139
13,CCAGAUUGAUGUCAUGUAUTT against BMI1,inactive: 0
14,CAGAGUACCUUGUCGUGUATT against TNC,inactive: -0.253
15,AGGCAGUCCAUGUCAUCUATT against CXCR4,inactive: -0.347
16,GGAACAAGAGUGGACGGAATT against PIAS3,inactive: -0.216
17,GGACCGCUGUUGUUCCAUUTT against ZNF217,inactive: -0.872
18,CAUCAUCACAUGGAACGAATT against ACVR2B,inactive: 0.824
19,CUAUGAUCUCAACCAAAUATT against CD248,inactive: -0.0191
20,CUCCUAUGGUUGGUCCUUUTT against CACNG3,inactive: -0.189
21,CAACACCUCCAGAAUACAATT against CDR2,inactive: -0.37
22,GCACUCCCAAGAUUGAUAATT against RBPJ,inactive: -0.452
23,GCUAUAAUCCUUAUGCGUATT against PDCD6IP,inactive: 0
24,GUAUCAUCACGUGGGCAAATT against PGRMC1,inactive: 0.124
25,GGGAAUCAGAUAGAACUUATT against SDHC,inactive: 0.00895
26,GCGAAAGUCUUAAUAACUATT against PCDHGA6,inactive: 0.0559
27,GCUUAACGACUGCUAUAAATT against AKAP6,inactive: -0.0978

# Individual results from the results shown.
# median seed-adjusted z-score with GGAACAAGAGUGGACGGAATT against PIAS3 reads inactive: -0.216
# median seed-adjusted z-score with GGACCGCUGUUGUUCCAUUTT against ZNF217 reads inactive: -0.872

# Additional entries follow.

row,Sequence,median seed-adjusted z-score
1,GCGAGGCAGUUUAUGAGUUTT against CACNA1G,inactive: 0.436
2,UCACCUUUCUGUCAGCGAATT against PCDHGC5,inactive: -0.0264
3,CCAGCACUAAGGAAGCCCATT against PLIN,inactive: 0.166
4,CAAAGAUUCUAGAGGACAATT against PDHB,inactive: -0.478
5,AGUUCGACCUCUACACCAATT against MIOX,inactive: 0.14
6,GGAGCAAUACAGACCAAGATT against ABCC8,inactive: 0.24
7,GCAACACGUUUGAAAUGAATT against ETV6,inactive: 0.0216
8,CUUGCGCAGUGGAAAAUGATT against TRAK1,inactive: 0.298
9,GGGAAGCACUGGUCGAAGATT against DTD1,active: -1.58
10,GACGGUCCAUGAUGCUAUATT against SLC26A4,inactive: 0.274
11,CUCUGACUCUUGCAACUGATT against CCT4,inactive: -0.413
12,GGAGUCAGAUCUUCGUAAATT against TJP2,inactive: 0.0668
13,GCUUCACUGAUACCCGGAATT against EEF2,inactive: -0.159
14,CCAUUAUCGCUGUCUUCUATT against CXCR7,inactive: -0.511
15,GAACAGGAUUGGUCAGCUATT against GGA2,inactive: -0.142
16,GCCUGUCCUUUGUAAUGCUTT against CYP8B1,inactive: 0
17,GGGUACACCUAUCACAACATT against PCDH15,inactive: -0.712
18,GCCCUAGAAAGGUCACUGATT against AKR1CL1,inactive: 0.488
19,GGUACGAGAUGACAAGACATT against PPFIA1,inactive: 0.312
20,CCACUACUCUUUGUCCAUATT against TRIM6,inactive: -0.137
21,GCACUGGGUAGGUUGCAGATT against NT5C1A,inactive: -0.448
22,CCAUAUUGGGAUGAUAUUUTT against CAMKV,inactive: -0.193
23,GGAGGCUGCAGAUCUGGUATT against NDUFS7,inactive: -0.386
24,CUAGUUCGAUGGAUAAGUATT against PTPN13,inactive: 0.0682
25,AGAAGUGUCUGUAUCAGAATT against GEM,inactive: 0.018
26,CAAGGAUGGUAAUAGCUGUTT against POLG,inactive: 0
27,GCUCCUUCCUGAGAGCAAATT against PYCR1,inactive: -0.171
